Test results from article PMC5996148.
The other results are listed elsewhere or left out. For some of these results: The source does not settle which construct or isoform was used.

The chains behind the UniProt entries cited, without tags or fusion partners. Where a name states a change or a piece, a line headed by the entry shows the natural chain unless it says otherwise.
UniProt Q9H3H9: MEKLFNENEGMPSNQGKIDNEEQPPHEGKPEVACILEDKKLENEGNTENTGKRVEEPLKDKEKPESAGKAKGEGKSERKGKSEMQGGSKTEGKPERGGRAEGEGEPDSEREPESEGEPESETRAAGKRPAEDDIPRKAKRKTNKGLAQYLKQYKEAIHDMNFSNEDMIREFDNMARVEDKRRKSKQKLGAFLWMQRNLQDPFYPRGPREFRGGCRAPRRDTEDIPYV

Tests used:
Assay in all cases: protein microarray (ProtoArray v5.0), streptavidin-Alexa Fluor 647
Conditions in all cases: 3'-biotin; 20 mM Tris (pH 7.5), 5 mM MgCl2, 100 mM KCl, 0.1% Tween-20, A/T-rich and random oligonucleotide blockers; temperature not stated; high values mean tight binding
[1] = test system: TBL1X (human)
[2] = test system: TBXAS1 (human)
[3] = molecular target: TCEAL2 (UniProt Q9H3H9)
[4] = test system: TCP11 (human)
[5] = test system: TCP11L1 (human)
[6] = test system: TEAD4 (human)
[7] = molecular target: T1, TEKT4 (UniProt Q8WW24)
T1 sequence: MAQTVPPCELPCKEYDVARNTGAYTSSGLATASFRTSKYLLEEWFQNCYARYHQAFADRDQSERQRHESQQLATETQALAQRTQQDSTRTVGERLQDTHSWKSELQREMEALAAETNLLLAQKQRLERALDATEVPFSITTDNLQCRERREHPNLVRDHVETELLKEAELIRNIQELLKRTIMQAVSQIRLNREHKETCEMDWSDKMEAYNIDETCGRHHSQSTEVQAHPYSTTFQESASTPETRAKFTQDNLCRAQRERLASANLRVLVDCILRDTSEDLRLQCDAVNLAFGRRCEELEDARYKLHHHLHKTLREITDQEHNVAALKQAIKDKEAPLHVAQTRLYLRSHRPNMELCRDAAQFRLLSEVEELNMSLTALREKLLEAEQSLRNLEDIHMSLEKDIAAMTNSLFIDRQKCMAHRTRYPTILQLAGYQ

[8] = test system: TESC (human)
[9] = test system: TEX13B (human)
[10] = test system: TF (human)

Sequence “GGGGACAGGGGTATGGGGAGGGG [G4-3 biotinylated (CtG)]” has a binding signal [1] of -0.333 z-score, a binding signal [2] of -0.305 z-score and a binding signal [3] of 4.59 z-score. The binding signal [4] was -0.337 z-score, the binding signal [5] was -0.337 z-score and the binding signal [6] was -0.318 z-score. It also gave a binding signal [7] of -0.316 z-score, a binding signal [8] of -0.328 z-score and a binding signal [9] of -0.338 z-score. The binding signal [10] was -0.333 z-score.
